Common to all, as to assay: co-IP; HEK293T cells co-transfected with SynDIG (or IFITM3) and HA-tagged μAP subunit; lysate on α-HA magnetic beads for 90 min at RT; myc-tagged protein detected by immunoblot; values normalised to eluted μ protein and to input
Assay [1] addresses HA-tagged μ2 AP subunit (UniProt Q96CW1).
The target in assay [2] is T1, HA-tagged μ1a AP subunit (UniProt Q9BXS5).
T1 sequence: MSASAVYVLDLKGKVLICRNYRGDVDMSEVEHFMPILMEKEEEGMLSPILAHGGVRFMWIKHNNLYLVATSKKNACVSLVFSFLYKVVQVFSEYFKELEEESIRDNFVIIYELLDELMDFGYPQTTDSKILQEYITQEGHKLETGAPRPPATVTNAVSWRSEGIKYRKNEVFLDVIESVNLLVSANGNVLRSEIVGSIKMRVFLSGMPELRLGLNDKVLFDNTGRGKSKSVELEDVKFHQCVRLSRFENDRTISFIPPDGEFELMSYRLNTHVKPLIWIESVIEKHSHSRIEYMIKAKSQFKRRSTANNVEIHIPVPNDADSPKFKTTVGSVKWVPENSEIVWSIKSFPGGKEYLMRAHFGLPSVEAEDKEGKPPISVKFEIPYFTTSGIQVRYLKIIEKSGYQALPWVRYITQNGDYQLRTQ

Amino acid sequences for entries named in this document (tags omitted). A change or cut given only in a name is not applied to a line headed by its entry. Chains listed by the source or under a name are the forms on record and can include a tag or linker.
UniProt Q96CW1: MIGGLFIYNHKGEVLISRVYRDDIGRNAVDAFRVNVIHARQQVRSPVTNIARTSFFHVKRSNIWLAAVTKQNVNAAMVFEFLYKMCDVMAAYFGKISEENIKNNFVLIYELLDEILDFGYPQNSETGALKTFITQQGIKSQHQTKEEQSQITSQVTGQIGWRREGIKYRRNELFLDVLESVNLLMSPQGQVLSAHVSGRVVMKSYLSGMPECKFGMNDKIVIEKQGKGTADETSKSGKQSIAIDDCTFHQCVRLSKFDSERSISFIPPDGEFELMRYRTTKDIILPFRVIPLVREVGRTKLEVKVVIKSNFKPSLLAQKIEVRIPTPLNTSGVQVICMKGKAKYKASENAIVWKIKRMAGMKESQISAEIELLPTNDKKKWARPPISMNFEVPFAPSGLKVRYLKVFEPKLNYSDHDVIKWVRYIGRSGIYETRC
UniProt Q6MG82: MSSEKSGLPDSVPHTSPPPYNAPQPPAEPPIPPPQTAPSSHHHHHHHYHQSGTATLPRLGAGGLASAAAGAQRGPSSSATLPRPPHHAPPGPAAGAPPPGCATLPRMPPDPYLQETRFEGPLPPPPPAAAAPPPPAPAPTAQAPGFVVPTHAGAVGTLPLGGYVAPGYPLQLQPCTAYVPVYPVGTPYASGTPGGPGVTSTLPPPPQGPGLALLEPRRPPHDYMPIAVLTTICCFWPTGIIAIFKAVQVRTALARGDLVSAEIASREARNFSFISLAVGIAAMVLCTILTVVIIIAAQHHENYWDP
SynDIG4 mutant 178-AVPA-181 (Q6MG82, form named): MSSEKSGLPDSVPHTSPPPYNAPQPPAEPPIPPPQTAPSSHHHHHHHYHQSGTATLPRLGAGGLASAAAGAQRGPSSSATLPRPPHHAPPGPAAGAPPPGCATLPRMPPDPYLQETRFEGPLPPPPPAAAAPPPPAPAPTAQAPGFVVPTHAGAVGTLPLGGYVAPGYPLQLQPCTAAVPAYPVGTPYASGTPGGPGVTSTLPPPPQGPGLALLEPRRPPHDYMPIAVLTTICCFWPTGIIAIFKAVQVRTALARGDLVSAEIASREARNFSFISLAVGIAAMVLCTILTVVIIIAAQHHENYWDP
SynDIG4 mutant 223-AMPA-226 (Q6MG82, form named): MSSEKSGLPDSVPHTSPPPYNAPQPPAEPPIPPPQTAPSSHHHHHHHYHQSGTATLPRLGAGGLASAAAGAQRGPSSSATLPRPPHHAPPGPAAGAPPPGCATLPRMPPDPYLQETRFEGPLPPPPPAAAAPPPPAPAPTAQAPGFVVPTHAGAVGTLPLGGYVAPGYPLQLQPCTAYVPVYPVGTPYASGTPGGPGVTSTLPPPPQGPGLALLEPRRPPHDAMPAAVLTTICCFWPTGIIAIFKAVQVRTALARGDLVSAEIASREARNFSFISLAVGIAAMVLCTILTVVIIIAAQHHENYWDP
UniProt A2ANU3: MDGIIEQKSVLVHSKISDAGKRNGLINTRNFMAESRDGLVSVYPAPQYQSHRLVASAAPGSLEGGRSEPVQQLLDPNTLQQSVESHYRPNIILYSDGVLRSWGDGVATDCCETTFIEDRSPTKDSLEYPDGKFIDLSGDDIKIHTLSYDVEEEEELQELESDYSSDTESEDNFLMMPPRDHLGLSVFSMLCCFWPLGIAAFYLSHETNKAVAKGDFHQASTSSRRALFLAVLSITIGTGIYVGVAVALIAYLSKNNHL
myc-SynDIG1∆161–72 (A2ANU3, form named): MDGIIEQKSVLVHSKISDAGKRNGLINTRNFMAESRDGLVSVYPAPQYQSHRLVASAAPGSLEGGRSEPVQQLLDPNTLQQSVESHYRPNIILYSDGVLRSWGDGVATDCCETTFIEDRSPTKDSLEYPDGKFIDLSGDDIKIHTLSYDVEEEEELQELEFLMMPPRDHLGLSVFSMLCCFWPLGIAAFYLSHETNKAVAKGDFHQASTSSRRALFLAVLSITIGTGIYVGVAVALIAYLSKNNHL
myc-SynDIG1∆161–76 (A2ANU3, form named): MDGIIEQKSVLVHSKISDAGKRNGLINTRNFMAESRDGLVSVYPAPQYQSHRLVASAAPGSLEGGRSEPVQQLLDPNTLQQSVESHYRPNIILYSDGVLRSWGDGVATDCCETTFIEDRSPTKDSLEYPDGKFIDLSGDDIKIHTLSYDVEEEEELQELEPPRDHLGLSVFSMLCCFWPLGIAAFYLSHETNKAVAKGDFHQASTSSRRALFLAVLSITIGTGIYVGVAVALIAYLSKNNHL
UniProt Q01628: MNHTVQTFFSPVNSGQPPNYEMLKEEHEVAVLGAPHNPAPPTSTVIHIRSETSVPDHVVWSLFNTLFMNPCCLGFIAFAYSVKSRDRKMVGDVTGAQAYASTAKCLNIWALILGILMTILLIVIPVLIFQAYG

In assay [3] the target is T2, HA-tagged μ4 AP subunit (UniProt O00189).
T2 sequence: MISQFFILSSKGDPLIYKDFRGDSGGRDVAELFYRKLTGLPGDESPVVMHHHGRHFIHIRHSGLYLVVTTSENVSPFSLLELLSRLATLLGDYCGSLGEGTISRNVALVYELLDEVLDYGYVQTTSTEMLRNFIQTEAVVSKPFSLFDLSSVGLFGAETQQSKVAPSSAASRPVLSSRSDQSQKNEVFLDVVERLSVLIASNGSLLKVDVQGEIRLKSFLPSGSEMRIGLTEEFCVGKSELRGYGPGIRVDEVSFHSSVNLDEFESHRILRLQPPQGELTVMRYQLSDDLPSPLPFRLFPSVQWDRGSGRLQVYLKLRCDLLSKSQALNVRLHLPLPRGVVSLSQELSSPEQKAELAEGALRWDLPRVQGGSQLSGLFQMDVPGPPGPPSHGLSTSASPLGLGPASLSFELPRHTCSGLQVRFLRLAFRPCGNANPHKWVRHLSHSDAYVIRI

In assay [4] the target is T3, HA-tagged μ3a AP subunit (UniProt Q9Y2T2).
T3 sequence: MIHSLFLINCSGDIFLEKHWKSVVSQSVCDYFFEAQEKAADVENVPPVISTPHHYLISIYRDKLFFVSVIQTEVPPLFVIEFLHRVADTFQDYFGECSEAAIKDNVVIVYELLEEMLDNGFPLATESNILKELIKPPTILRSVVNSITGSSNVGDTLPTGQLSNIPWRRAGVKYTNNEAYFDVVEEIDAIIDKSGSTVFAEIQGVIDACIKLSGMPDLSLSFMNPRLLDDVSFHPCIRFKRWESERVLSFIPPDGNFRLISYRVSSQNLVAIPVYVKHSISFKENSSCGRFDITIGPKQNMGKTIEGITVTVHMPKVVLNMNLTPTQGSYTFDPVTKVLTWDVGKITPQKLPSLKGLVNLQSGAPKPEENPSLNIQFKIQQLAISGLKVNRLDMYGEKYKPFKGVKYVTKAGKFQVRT

These are yes or no findings as the source states them, for the method shown. In cells and extracts the contact can be indirect. Some binding calls cover weakened binding; strength is not graded here. For some of these results: Where a sequence is shown, tags or fusion partners need not be part of it.

Regarding “SynDIG4 mutant 178-AVPA-181 (from UniProt Q6MG82 1-306)”, in assay [1], the binding entry is reported as “binds”.

As to “SynDIG4 mutant 223-AMPA-226 (from UniProt Q6MG82 1-306)”, in assay [1], the binding entry was “binds”.

With “myc-SynDIG1∆161–72 (from UniProt A2ANU3 1-258)”, the binding entry in assay [1] is on record as “binds”.

For “myc-SynDIG1∆161–76 (from UniProt A2ANU3 1-258)”, in assay [2], the binding result is reported as “binds”.

In the case of myc-hIFITM3 (from UniProt Q01628 1-133), the binding entry in assay [2] was “binds weakly”; in assay [1] it was “binds”; in assay [3] it was “binds weakly”.

Regarding “myc-tagged SynDIG1 (wild type) (from UniProt A2ANU3 1-258)”, the binding entry in assay [2] and in assay [1] was “binds” throughout.

Turning to “myc-tagged SynDIG4 (wild type) (from UniProt Q6MG82 1-306)”, the binding result in assay [2], in assay [1], in assay [4] and in assay [3] was “binds” in each case.

These data come from publication PMC11798926.
